Results from publication PMC10782615.
No constants are given. Whether binding was seen depends on the method and setting. Binding seen in cells or lysates may run through a third protein. Here binding means that the protein was enriched with, or labelled near, the bait; the list need not be complete.

The chains behind the UniProt entries cited, without tags or fusion partners.
UniProt Q99623: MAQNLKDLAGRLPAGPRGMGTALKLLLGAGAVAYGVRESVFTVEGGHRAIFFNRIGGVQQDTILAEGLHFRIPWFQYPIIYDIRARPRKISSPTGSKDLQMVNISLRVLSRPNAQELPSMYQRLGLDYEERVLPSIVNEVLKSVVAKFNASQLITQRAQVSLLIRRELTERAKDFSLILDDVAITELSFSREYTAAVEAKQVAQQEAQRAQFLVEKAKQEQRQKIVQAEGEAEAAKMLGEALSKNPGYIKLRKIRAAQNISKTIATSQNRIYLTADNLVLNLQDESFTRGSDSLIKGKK
UniProt P46934: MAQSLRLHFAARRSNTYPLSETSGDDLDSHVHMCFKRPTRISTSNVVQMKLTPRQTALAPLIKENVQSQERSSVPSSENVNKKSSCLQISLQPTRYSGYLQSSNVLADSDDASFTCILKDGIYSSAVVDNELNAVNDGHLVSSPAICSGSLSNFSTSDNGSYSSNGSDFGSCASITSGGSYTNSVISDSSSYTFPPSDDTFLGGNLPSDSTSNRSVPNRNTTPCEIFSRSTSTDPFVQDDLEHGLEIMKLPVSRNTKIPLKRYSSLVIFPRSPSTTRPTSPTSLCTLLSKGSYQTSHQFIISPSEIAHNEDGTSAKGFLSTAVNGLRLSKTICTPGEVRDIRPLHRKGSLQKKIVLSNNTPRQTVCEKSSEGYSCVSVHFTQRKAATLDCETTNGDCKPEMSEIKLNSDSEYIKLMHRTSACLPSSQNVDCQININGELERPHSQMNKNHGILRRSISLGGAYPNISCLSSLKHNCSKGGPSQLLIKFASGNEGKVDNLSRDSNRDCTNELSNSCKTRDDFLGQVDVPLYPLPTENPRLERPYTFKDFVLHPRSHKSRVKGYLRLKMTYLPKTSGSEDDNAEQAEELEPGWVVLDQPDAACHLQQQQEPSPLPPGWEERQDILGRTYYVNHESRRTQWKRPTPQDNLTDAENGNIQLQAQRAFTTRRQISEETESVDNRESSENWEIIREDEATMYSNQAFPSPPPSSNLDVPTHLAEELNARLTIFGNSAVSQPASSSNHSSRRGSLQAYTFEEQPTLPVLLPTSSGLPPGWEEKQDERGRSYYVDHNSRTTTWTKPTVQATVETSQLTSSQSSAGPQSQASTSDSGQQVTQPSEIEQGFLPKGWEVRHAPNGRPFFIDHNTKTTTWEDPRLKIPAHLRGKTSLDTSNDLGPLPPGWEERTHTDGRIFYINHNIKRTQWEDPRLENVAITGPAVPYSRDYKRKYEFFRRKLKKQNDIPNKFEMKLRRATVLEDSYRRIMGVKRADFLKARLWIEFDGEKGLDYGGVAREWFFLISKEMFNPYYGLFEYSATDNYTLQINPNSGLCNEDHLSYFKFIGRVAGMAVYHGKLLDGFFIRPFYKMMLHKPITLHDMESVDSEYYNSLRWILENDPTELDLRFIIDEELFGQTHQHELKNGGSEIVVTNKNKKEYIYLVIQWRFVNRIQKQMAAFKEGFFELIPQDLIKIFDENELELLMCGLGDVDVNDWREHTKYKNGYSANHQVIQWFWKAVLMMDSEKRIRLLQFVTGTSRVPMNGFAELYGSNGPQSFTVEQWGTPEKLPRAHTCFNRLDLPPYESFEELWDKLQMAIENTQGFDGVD

T1: Src homology 2-containing inositol 5-phosphatase 2 (SHIP2), endogenous (human (endogenous in HGC-27 and MKN-28)) (UniProt O15357)
T1 sequence: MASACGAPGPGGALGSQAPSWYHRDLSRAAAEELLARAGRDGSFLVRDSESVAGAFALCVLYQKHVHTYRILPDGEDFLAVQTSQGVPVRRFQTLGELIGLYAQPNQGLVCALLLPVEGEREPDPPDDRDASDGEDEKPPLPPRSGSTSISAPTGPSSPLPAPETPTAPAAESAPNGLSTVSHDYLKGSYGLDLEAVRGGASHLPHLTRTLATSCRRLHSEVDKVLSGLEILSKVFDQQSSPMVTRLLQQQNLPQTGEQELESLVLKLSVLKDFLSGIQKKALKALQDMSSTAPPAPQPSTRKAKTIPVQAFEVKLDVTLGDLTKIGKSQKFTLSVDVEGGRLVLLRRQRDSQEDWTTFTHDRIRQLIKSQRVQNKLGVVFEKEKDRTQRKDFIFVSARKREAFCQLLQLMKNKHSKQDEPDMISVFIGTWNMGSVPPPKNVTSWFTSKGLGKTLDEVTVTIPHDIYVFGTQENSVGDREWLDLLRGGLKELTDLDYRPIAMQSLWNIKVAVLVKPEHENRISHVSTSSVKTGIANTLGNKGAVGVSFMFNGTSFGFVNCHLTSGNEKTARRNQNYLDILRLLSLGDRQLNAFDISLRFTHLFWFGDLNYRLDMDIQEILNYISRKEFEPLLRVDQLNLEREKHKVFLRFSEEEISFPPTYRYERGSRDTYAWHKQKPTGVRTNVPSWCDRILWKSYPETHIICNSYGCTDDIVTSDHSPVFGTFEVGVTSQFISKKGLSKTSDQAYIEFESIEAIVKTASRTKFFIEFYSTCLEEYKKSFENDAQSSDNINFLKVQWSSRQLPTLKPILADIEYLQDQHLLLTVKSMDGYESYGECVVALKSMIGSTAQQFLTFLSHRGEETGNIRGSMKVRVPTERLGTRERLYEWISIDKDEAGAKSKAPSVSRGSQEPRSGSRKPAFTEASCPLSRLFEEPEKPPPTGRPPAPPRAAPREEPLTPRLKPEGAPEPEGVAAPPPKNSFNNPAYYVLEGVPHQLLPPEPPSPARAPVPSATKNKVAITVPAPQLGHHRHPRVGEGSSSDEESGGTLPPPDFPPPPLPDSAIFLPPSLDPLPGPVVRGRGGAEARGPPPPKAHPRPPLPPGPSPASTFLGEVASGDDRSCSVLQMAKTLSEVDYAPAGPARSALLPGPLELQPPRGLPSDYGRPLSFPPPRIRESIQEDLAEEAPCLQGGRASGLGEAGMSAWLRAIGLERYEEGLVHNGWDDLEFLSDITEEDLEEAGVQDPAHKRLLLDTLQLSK


Experiments:
[1] = biological target: T1, Src homology 2-containing inositol 5-phosphatase 2 (SHIP2), endogenous (human (endogenous in HGC-27 and MKN-28)); assay: affinity purification with mass spectrometry; immunoprecipitation of SHIP2 from GC cells followed by mass spectrometry
[2] = biological target: Prohibitin 2 (PHB2), endogenous (human (endogenous in HGC-27 and MKN-28)) (UniProt Q99623); assay: affinity purification with mass spectrometry; immunoprecipitation of PHB2 from HGC-27 cells followed by mass spectrometry (IP-MS)

binding [1] | binding [2] | Molecule
binds | – | NEDD4, endogenous (from UniProt P46934 1-1319) (enzyme)
– | binds | Src homology 2-containing inositol 5-phosphatase 2 (SHIP2), endogenous (protein, UniProt O15357 1-1258) MASACGAPGPGGALGSQAPSWYHRDLSRAAAEELLARAGRDGSFLVRDSESVAGAFALCVLYQKHVHTYRILPDGEDFLAVQTSQGVPVRRFQTLGELIGLYAQPNQGLVCALLLPVEGEREPDPPDDRDASDGEDEKPPLPPRSGSTSISAPTGPSSPLPAPETPTAPAAESAPNGLSTVSHDYLKGSYGLDLEAVRGGASHLPHLTRTLATSCRRLHSEVDKVLSGLEILSKVFDQQSSPMVTRLLQQQNLPQTGEQELESLVLKLSVLKDFLSGIQKKALKALQDMSSTAPPAPQPSTRKAKTIPVQAFEVKLDVTLGDLTKIGKSQKFTLSVDVEGGRLVLLRRQRDSQEDWTTFTHDRIRQLIKSQRVQNKLGVVFEKEKDRTQRKDFIFVSARKREAFCQLLQLMKNKHSKQDEPDMISVFIGTWNMGSVPPPKNVTSWFTSKGLGKTLDEVTVTIPHDIYVFGTQENSVGDREWLDLLRGGLKELTDLDYRPIAMQSLWNIKVAVLVKPEHENRISHVSTSSVKTGIANTLGNKGAVGVSFMFNGTSFGFVNCHLTSGNEKTARRNQNYLDILRLLSLGDRQLNAFDISLRFTHLFWFGDLNYRLDMDIQEILNYISRKEFEPLLRVDQLNLEREKHKVFLRFSEEEISFPPTYRYERGSRDTYAWHKQKPTGVRTNVPSWCDRILWKSYPETHIICNSYGCTDDIVTSDHSPVFGTFEVGVTSQFISKKGLSKTSDQAYIEFESIEAIVKTASRTKFFIEFYSTCLEEYKKSFENDAQSSDNINFLKVQWSSRQLPTLKPILADIEYLQDQHLLLTVKSMDGYESYGECVVALKSMIGSTAQQFLTFLSHRGEETGNIRGSMKVRVPTERLGTRERLYEWISIDKDEAGAKSKAPSVSRGSQEPRSGSRKPAFTEASCPLSRLFEEPEKPPPTGRPPAPPRAAPREEPLTPRLKPEGAPEPEGVAAPPPKNSFNNPAYYVLEGVPHQLLPPEPPSPARAPVPSATKNKVAITVPAPQLGHHRHPRVGEGSSSDEESGGTLPPPDFPPPPLPDSAIFLPPSLDPLPGPVVRGRGGAEARGPPPPKAHPRPPLPPGPSPASTFLGEVASGDDRSCSVLQMAKTLSEVDYAPAGPARSALLPGPLELQPPRGLPSDYGRPLSFPPPRIRESIQEDLAEEAPCLQGGRASGLGEAGMSAWLRAIGLERYEEGLVHNGWDDLEFLSDITEEDLEEAGVQDPAHKRLLLDTLQLSK
